This note sets out measurements from patent US20240174750A1 (VIRTUOSO BINCO, published 2024).

By UniProt entry, the sequences of proteins in these tests, tags left out. Residues count along the entry.
UniProt Q08722, residues 19-323: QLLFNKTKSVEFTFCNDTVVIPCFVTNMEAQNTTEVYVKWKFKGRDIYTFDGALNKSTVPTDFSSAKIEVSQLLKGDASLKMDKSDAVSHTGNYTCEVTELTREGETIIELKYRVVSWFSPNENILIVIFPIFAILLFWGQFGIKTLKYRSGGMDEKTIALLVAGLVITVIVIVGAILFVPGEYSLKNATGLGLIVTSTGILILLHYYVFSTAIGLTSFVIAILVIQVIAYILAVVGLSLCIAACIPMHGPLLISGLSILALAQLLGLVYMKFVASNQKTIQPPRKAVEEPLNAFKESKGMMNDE

Changes are numbered by the printed parent chain. No constants are given. Whether binding was seen depends on the method and setting. Some results given as binding are weak or reduced against the parent protein; the word gives no strength.

The target in assay [1] is T1, CD47 on the surface of CD47+ cells (human, UniProt Q08722 19-323).
T1 construct: whole, on cells; also called CD47+ cell lines; CD47 on Raji cells, HCT-15 cells, human red blood cells (RBCs), human platelets
Description: flow cytometry on human red blood cells, FIG. 7B. A general note: Flow cytometry measures light scatter and fluorescence of single cells or particles in a stream.

For assay [2], the target named is T1, CD47 on the surface of CD47+ cells. Description: binding on human platelets, FIG. 8B.
The target of assay [3] is CD47 on the surface of CD47+ cells (human) (UniProt Q08722). As to the kind of experiment: flow cytometry on human red blood cells, FIG. 7B.
Assay [4] shares this target. Description: binding on human platelets, FIG. 8B.
For assay [5], the target named is T1, CD47 on the surface of CD47+ cells. As to the kind of experiment: flow cytometry on human red blood cells, FIG. 7A.
The target is the same in assay [6]. Description: binding on human platelets, FIG. 8A.
The target in assay [7] is CD47 on the surface of CD47+ cells (human) (UniProt Q08722). Description: flow cytometry on human red blood cells, FIG. 7A.
The target is the same in assay [8]. As to the kind of experiment: binding on human platelets, FIG. 8A.

B1: hu.18B9.3i-V1 (antibody, human IgG1, kappa, V domains shown)
VH: EVQLVESGGGLVQPGGSLRLSCAASGFSFNSGYMSWVRQAPGKGLEWIASIYAGSSGKTYYADWAKGRFTISKTSSKTTVYLQMNSLRAEDTAVYYCARDSGGTYYTDYLYAWGQGTLVTVSS
VL: DIQMTQSPSSLSASVGDRVTITCRASEGISSYLSWYQQKPGKAPKLLIYKASTLTSGVPSRFSGSGSGTDFTLTISSLQPEDFATYYCQSTYGSSGSSGYGAAFGGGTKVEIKR
In the case of B1, the binding entry in assay [1] and in assay [2] was “binds” throughout.

B2: hu.18B9.3i-V3 (antibody, human IgG1, kappa, V domains shown)
VH: B1 VH with A112L
VL: B1 VL with G101A
For B2, the binding result in assay [3] and in assay [4] was “binds” in each case.

B3: hu.18B9.3i-V2 (antibody, human IgG1, kappa, V domains shown)
VH: B1 VH with A112L
VL: B1 VL with T91A
For B3, the binding result in assay [3] and in assay [4] was “binds” throughout.

B4: hu.1D15E11-V1 (antibody, human IgG1, kappa, V domains shown)
VH: EVQLVQSGAEVKKPGASVKVSCKASGYTFTSYVMHWVRQAPGQRLEWMGYIDPYNEGTKYNEKFKGRVTITRDTSASTAYMELSSLRSEDTAVYYCSRGGMARRSFDYWGQGTLVTVSS
VL: DIQMTQSPSSLSASVGDRVTITCLASQTIGTWLTWYQQKPGKAPKLLIYAATTLAEGVPSRFSGSGSGTDFTLTISSLQPEDFATYYCQQLYSTPWTFGGGTKVEIKR
notes: Humanised variant of 1D15E11; also called hu.1D15E11-Vi; hu.1D15E11 variants
B4: the binding entry in assay [5] and in assay [6] was “binds” throughout.

B5: hu.1D15E11-V3 (antibody, human IgG1, kappa, V domains shown)
VH: B4 VH with M101I
VL: B4 VL
notes: Humanised variant of 1D15E11; also called hu.1D15E11 variants
For B5, the binding result in assay [7] and in assay [8] was “binds” each time.

B6: hu.1D15E11-V2 (antibody, human IgG1, kappa, V domains shown)
VH: B4 VH with R72S
VL: B4 VL
notes: as for B5
Regarding B6, the binding entry in assay [7] and in assay [8] was “binds” throughout.

B7: hu.1D15E11-V4 (antibody, human IgG1, kappa, V domains shown)
VH: B4 VH with M101V
VL: B4 VL
notes: as for B5
Regarding B7, the binding result in assay [7] and in assay [8] was “binds” throughout.
